Source: PubChem BioAssay AID1259308 (NCATS, 2017)
Assay: 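Candidate targets for better recombinant protein yield in mammalian cells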 (primary screen). Cells: human HEK293 embryonic kidney cells stably expressing firefly luciferase (HEK-CMV-Luc2-Hygro). Reagent: single siRNA against human genes, 0.8 pmol siRNA per well. Time to read-out: 72 h. Measurement: 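Luciferase light (ONE-Glo) measured on one replicate plate set and viability (CellTiter-Glo) on the other, scaled to a negative control siRNA, with robust z-scores and luciferase per cell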. Direction: total luciferase, z-score and total luciferase, % of control: higher = more reporter protein produced; luciferase per cell, z-score: higher = more reporter output per viable cell; viable cells, % of control: higher = more viable cells. Call rule: 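An siRNA counts as active if its total luciferase robust z-score exceeds 3; genes with two or more such siRNAs out of three were retested with fresh siRNAs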. Meaning of the calls: active = raised luciferase; inactive = no rise.
Here is an unselected part of about 59,000 reagents tested. About 1,510 of all reagents (2.6%) count as active. 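Calls use total luciferase alone and ignore viability, so some active siRNAs may act by altering cell number.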 Entries without a mark were called inactive. The numbers tell different reagents against one gene apart. Reagent sequences are not shown.

no.	Gene	siRNA no.	total luciferase, z-score	total luciferase, % of control	luciferase per cell, z-score	viable cells, % of control
1	LRFN5	1	0.455	90.9	-0.0416	103
2	LRFN5	2	1.63	114	1.76	80.2
3	LRFN5	3	-0.571	70.5	-1.6	120
4	POLG	1	1.48	111	1.96	74.4
5	POLG	2	-0.0684	80.5	-0.0264	90.6
6	POLG	3	-0.573	70.5	-1.28	110
7	HLA-DQA2	1	-1.23	57.4	-0.647	76.1
8	HLA-DQA2	2	0.419	90.2	2.12	57.7
9	HLA-DQA2	3	1.08	103	1.22	83.9
10	APOL5	1	-0.879	64.4	-0.393	79.8
11	APOL5	2	0.878	99.3	2.12	63.5
12	APOL5	3	2.56	133	1.2	108
13	KANSL2	1	-1.16	58.7	-0.958	84.4
14	KANSL2	2	-1.07	60.6	-1.27	94.6
15	KANSL2	3	0.0522	82.9	-0.167	96.8
16	CEACAM6	1	1.75	117	0.385	118
17	CEACAM6	2	-1.67	48.7	-1.73	85.9
18	CEACAM6	3	0.135	84.6	-0.684	113
19	NME3	1	2.38	129	2.63	72.3
20	NME3	2	3.22 (active)	146	1.68	105
21	NME3	3	0.184	85.5	-0.581	111
22	TP53I13	1	2.11	124	1.74	87.6
23	TP53I13	2	0.228	86.4	0.605	82.4
24	TP53I13	3	-0.696	68.1	-0.178	79.7
25	MAML1	1	4.6 (active)	173	2.67	96
26	MAML1	2	2.33	128	2.4	76.2
27	MAML1	3	-0.182	78.3	-0.394	97
28	URB2	1	-0.0138	81.6	-0.222	96.7
29	URB2	2	-0.115	79.6	-0.288	96
30	URB2	3	1.99	121	1.5	91.5
31	POGZ	1	0.109	84	-0.148	97.6
32	POGZ	2	1.82	118	1.12	98.3
33	POGZ	3	0.676	95.3	2.02	62.6
34	GPX5	1	-1.17	58.6	-1.31	92.3
35	GPX5	2	0.0334	82.6	-0.0975	94.6
36	GPX5	3	2.11	124	1.71	88.2
37	KDELR3	1	1.5	112	0.74	103
38	KDELR3	2	-0.802	65.9	0.415	66.1
39	KDELR3	3	-0.376	74.4	0.366	75.5

Reformatted: results already given.
Gene	siRNA no.	total luciferase, z-score	total luciferase, % of control	luciferase per cell, z-score	viable cells, % of control
KDELR3	2	-0.802	65.9	0.415	66.1
KDELR3	3	-0.376	74.4	0.366	75.5
